PubChem BioAssay AID1347076 (National Center for Advancing Translational Sciences (NCATS), 2019)
Hit rate of the full screen: of about 400,000 compounds, about 13,000 (3.2%) were called active. The shares of active, inactive and inconclusive entries below differ from those in the screen. Calls follow the shape of the dose curve; as a rule, active = well fitted cell-killing curve with a large enough effect; inconclusive = small, poorly fitted or top-dose-only effect, or effect the other way; inactive = flat fitted curve, though single readings scatter. Where the call is inconclusive, the potency comes from a doubtful curve fit.
% is scaled to controls: 0 for no effect and ±100 for the full control effect; potency is read from the fitted curve at half-maximal effect.

Test: qHTS assay for MDR1-selective chemotherapeutics: Primary screen using the drug-selected MDR subline cells KB-V1; also: nearly all actives have a fitted effect of over 60% in size
Details: KB-V1 MDR cells viability, CellTiter-Glo, 72 h; activity change, negative = cytotoxicity: at 46.1 µM (top of the series)
How it was run: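 Compound-treated KB-V1 multidrug-resistant cells, 72 h, 37 degrees C; viability by CellTiter-Glo. Fitted qHTS curves give the values.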
With `Cc1cc(N2CCC(C)CC2)n2ncc(-c3ccccc3)c2n1` the Potency was inconclusive: 18.4 µM [cytotoxic, partial curve, poor fit]. In the case of `Cc1cccc(OCC(=O)Nc2ccccc2N2CCCC2)c1C`, the Potency is reported as inconclusive: 20.6 µM [cytotoxic, partial curve, poor fit]. In the case of `COc1ccc(CNC(=O)CN(Cc2ccccc2)C(=O)CCC(=O)Nc2ccccn2)cc1`, the Potency is reported as “inactive”. In the case of `O=C(Cc1ccc(S(=O)(=O)N2CCOCC2)s1)Oc1ccc(F)cc1`, the Potency is reported as inconclusive: 29.1 µM [cytotoxic, single point]. In the case of `Cc1cc(Cl)ccc1OCC(=O)NCCOc1nc(N2CCOCC2)nc(N2CCOCC2)n1`, the Potency is reported as inconclusive: 16.4 µM [cytotoxic, single point]. In the case of `CCCS(=O)(=O)c1ccc(COC(=O)c2cccc(NC(=O)C(C)C)c2)cc1`, the Potency is reported as inconclusive: 14.6 µM [cytotoxic, partial curve]. For `Cc1cccc(NC(=S)NCCc2ccc3c(c2)OCCO3)c1C`, the Potency was inconclusive: 16.4 µM [cytotoxic, partial curve]. For `Cc1ccc(C(=O)NCC(c2cccnc2)N2CCc3ccccc32)cc1C` (stereo not drawn), the Potency was “inactive”. With `O=C(NCC1CCCC(CNC(=O)Nc2ccc(Cl)cn2)C1)Nc1ccc(Cl)cn1` (stereo not drawn) the Potency was inconclusive: 29.1 µM [cytotoxic, single point]. With `Cc1ccc(C)c(Nc2nn3c(=O)c4ccc(C(=O)NC5CCCCC5)cc4nc3s2)c1` the Potency was inconclusive: 1.16 µM [rising, partial curve, poor fit]. For `Fc1ccc(-n2ncc3c(SCc4cccnc4)ncnc32)cc1`, the Potency was inconclusive: 8.2 µM [cytotoxic, partial curve]. In the case of `O=C(COC(=O)c1ccc(Br)o1)NCc1ccccc1Cl`, the Potency is reported as “inactive”. For `Cc1ccc(CCNC(=O)C2CCN(S(=O)(=O)c3cccc4nonc34)CC2)cc1`, the Potency was inconclusive: 23.1 µM [cytotoxic, partial curve, poor fit]. In the case of `O=C(Cn1cnc2ccccc2c1=O)N1CCN(c2ccccc2)CC1`, the activity change, negative = cytotoxicity is reported as inconclusive: -107%. With `COc1ccc(Cl)cc1NC(=O)Cn1nc(-c2ccc(C)cc2)n(C)c1=S` the Potency was inconclusive: 6.51 µM [cytotoxic, partial curve]. With `CCNc1nc(SC(C)C(=O)Nc2ccccc2)nc(N(C)C)n1` (stereo not drawn) the Potency was inconclusive: 0.0517 µM [cytotoxic, full curve]. With `C=CCn1c(NS(=O)(=O)c2ccccc2)c(S(=O)(=O)c2ccc(C)cc2)c2nc3ccccc3nc21` the Potency was active: 13 µM. For `Cc1onc(-c2c(F)cccc2Cl)c1C(=O)N1CCCc2ccccc21`, the Potency was inconclusive: 29.1 µM [cytotoxic, single point]. For `CC(C)[C@H](NC(=O)c1ccccc1)C(=O)OCC(=O)N1CCc2ccccc2C1`, the Potency was active: 9.2 µM. With `Cc1ccc(-c2c(C)n3c4c(=O)n(C)c(=O)n(C)c4nc3n2-c2cccc(O)c2)cc1` the Potency was active: 18.4 µM. With `COc1cccc(-c2coc3c(C)c4oc(=O)c(CC(=O)O)c(C)c4cc23)c1` the Potency was “inactive”. In the case of `Cc1ccc(OCC(=O)N/N=C/c2cccnc2)cc1`, the Potency is reported as “inactive”. For `Cc1cc(C)cc(NC(=O)CSc2oc(-c3cccs3)nc2S(=O)(=O)c2ccccc2)c1`, the Potency was “inactive”. In the case of `O=C(CN1C(=O)/C(=C/c2ccccc2Cl)SC1=S)NC1C=CS(=O)(=O)C1` (stereo not drawn), the Potency is reported as inconclusive: 3.66 µM [rising, single point]. In the case of `COC(=O)C1=C(SC)N(c2ccc(OC)cc2)C(c2ccccc2)CC1=O` (stereo not drawn), the Potency is reported as inconclusive: 16.4 µM [cytotoxic, single point]. With `Cc1cccc(NCC(=O)c2c(N)n(C)c(=O)n(C)c2=O)c1C` the Potency was “inactive”. In the case of `CC(C)c1ccc(NC(=O)CSc2n[nH]c(=O)n2Cc2ccco2)cc1`, the Potency is reported as inconclusive: 18.4 µM [cytotoxic, partial curve, poor fit]. For `CCOC(=O)c1c(NC(=O)COC(=O)c2ccccc2NC)sc(C(=O)N(C)C)c1C`, the Potency was inconclusive: 29.1 µM [cytotoxic, single point]. In the case of `Cc1ccc(-c2csc(N3CCN(CCCn4c(C(F)(F)F)nc5ccccc54)CC3)n2)cc1`, the Potency is reported as “inactive”. With `CCN(NC(=O)C(O)(c1ccc(F)cc1)c1ccc(F)cc1)C(=O)c1ccccc1` the Potency was “inactive”. For `CCN(CC)C(=O)CSc1nnc(-c2cc3ccccc3cc2O)n1CC`, the Potency was active: 2.91 µM. With `O=C(NC(=S)NNC(=O)c1ccccc1O)c1ccco1` the Potency was inconclusive: 6.51 µM [cytotoxic, partial curve]. For `COc1cc(NC(=O)c2c(-c3ccccc3Cl)noc2C)c2ncccc2c1`, the Potency was “inactive”. With `Cc1cccc(C)c1NC(=O)CSc1nc(C)c(CC(=O)c2ccc(Br)cc2)c(C)c1C#N` the Potency was inconclusive: 29.1 µM [cytotoxic, single point]. In the case of `COc1ccccc1N1CCN(S(=O)(=O)CCNC(=O)CCc2ccccc2)CC1`, the Potency is reported as inconclusive: 20.6 µM [cytotoxic, single point]. In the case of `CC12CCC(c3nnc(SCc4ccc(Cl)cc4)nc31)C2(C)C` (stereo not drawn), the Potency is reported as inconclusive: 6.51 µM [cytotoxic, full curve, poor fit]. With `CCOC(=O)c1cc(S(=O)(=O)N2CCN(c3cc(C)ccc3C)CC2)[nH]n1` the Potency was “inactive”. For `CCOc1ccc(OCCC(=O)N2CCN(S(=O)(=O)c3cccc(F)c3)CC2)cc1`, the Potency was inconclusive: 11.6 µM [cytotoxic, partial curve]. For `CC(=O)Nc1cccc(Oc2ncnc3scc(-c4ccc(C)cc4)c23)c1`, the Potency was “inactive”. In the case of `COc1cccc(N/C(SCc2ccccc2Cl)=C(/C#N)C(=O)NCc2cccs2)c1`, the Potency is reported as active: 14.6 µM. With `CCC1=NN(C(=O)COc2ccccc2C)C(O)(c2ccncc2)C1` (stereo not drawn) the Potency was “inactive”. For `O=C(c1ccccc1)C1CCN(C(=O)c2cccs2)CC1`, the Potency was inconclusive: 29.1 µM [cytotoxic, single point]. For `CCOc1cc(NC(=O)c2ccco2)c(OCC)cc1NC(=O)COc1ccccc1C`, the Potency was inconclusive: 2.31 µM [cytotoxic, partial curve, poor fit]. For `CC1(C)Cc2ccccc2C(NNC(=O)c2ccc(Br)o2)=N1`, the Potency was inconclusive: 8.2 µM [cytotoxic, partial curve]. With `Cc1ccccc1N/C(SCc1ccc(Cl)cc1)=C(/C#N)C(=O)NCc1ccco1` the Potency was active: 11.6 µM. For `COc1ccccc1Nc1nn2c(=O)c3ccc(C(=O)N4CCCCC4)cc3nc2s1`, the Potency was inconclusive: 2.06 µM [rising, partial curve, poor fit]. With `Nc1[nH]c(C(=O)c2ccccc2)c(-c2ccc(F)cc2)c1C(=O)NCCc1c[nH]c2ccccc12` the Potency was inconclusive: 18.4 µM [cytotoxic, single point]. For `O=S(=O)(Nc1cccnc1)c1cccc(C(F)(F)F)c1`, the Potency was “inactive”. In the case of `Cc1ccc(S(=O)(=O)Nc2ccc(Nc3nccn4c(-c5cccc(OC(F)(F)F)c5)cnc34)cc2)cc1`, the Potency is reported as inconclusive: 20.6 µM [cytotoxic, single point]. In the case of `Cc1cc(C)n(CC(O)CN2c3ccccc3Sc3ccccc32)n1` (stereo not drawn), the Potency is reported as inconclusive: 18.4 µM [cytotoxic, single point]. With `COc1ccccc1CNCC(=O)Nc1cc(S(=O)(=O)N2CCOCC2)ccc1Cl` the Potency was inconclusive: 29.1 µM [cytotoxic, single point]. For `COc1ccc(NC(=O)CSc2nc3cc(OC)c(OC)cc3c3nc(-c4ccccc4)nn23)cc1Cl`, the Potency was inconclusive: 25.9 µM [rising, single point]. In the case of `O=C(NCCCN1CCOCC1)c1ccc(Sc2ccc(F)cc2)c([N+](=O)[O-])c1`, the Potency is reported as active: 23.1 µM. With `CC(=O)c1ccc(OCC(O)CN(C)Cc2cccs2)cc1` (stereo not drawn) the Potency was “inactive”. In the case of `C/C(=N/NC(=O)CN1CCN(Cc2ccccc2Cl)CC1)c1cccnc1`, the Potency is reported as inconclusive: 32.6 µM [cytotoxic, single point]. In the case of `COC(=O)c1ccc(NC(=O)C(=O)NCCc2sc(-c3cccc(F)c3)nc2C)cc1`, the Potency is reported as “inactive”. For `COc1cc([N+](=O)[O-])cc(/C=N/NC(=O)CSc2nnc(-c3ccccc3)n2C)c1O`, the Potency was inconclusive: 23.1 µM [cytotoxic, single point]. For `Cc1ccc(N2CCN(C3=NC(=O)/C(=C\c4cccs4)S3)CC2)cc1`, the Potency was inconclusive: 7.31 µM [cytotoxic, partial curve]. In the case of `COc1ccccc1NC(=O)C(C)OC(=O)C1CCC(C(C)(C)C)CC1` (stereo not drawn), the Potency is reported as inconclusive: 20.6 µM [cytotoxic, single point]. With `O=C(NNS(=O)(=O)Cc1ccccc1)c1ccc([N+](=O)[O-])cc1` the Potency was inconclusive: 0.731 µM [cytotoxic, full curve, poor fit]. With `Cc1nn2cc(-c3cccc(Cl)c3)cnc2c1Br` the Potency was inconclusive: 5.8 µM [cytotoxic, partial curve]. With `Cc1cccc(C)c1NC(=O)CCCCCNS(=O)(=O)c1ccccc1` the Potency was inconclusive: 20.6 µM [cytotoxic, single point]. In the case of `CC(NC(c1ccccc1)c1ccccc1)C(=O)N1CCCc2ccccc21` (stereo not drawn), the Potency is reported as active: 13 µM. With `COc1cc(NC(=O)c2cc(CC(C)C)on2)c(OC)cc1Cl` the activity change, negative = cytotoxicity was inconclusive: 42.6%. With `Cc1ccc(CN2CCN(Cc3cnc(C)s3)CC2CCO)cc1` (stereo not drawn) the Potency was inconclusive: 29.1 µM [cytotoxic, partial curve, poor fit]. With `COC(=O)CN(C(=S)Nc1ccc(Cl)cc1)C1CC(=O)N(c2ccc(OC)cc2)C1=O` (stereo not drawn) the Potency was inconclusive: 0.58 µM [cytotoxic, full curve, poor fit]. In the case of `COC(=O)C1C=CC(OC2OC(COC(C)=O)C(OC(C)=O)C(OC(C)=O)C2OC(C)=O)n2c(=O)n(-c3ccccc3)c(=O)n21` (stereo not drawn), the Potency is reported as active: 5.17 µM. For `O=C(CCOc1ccccc1)NCC(c1ccco1)N1CCCCC1` (stereo not drawn), the Potency was inconclusive: 7.31 µM [cytotoxic, partial curve].
